Data published in patent publication US20190218296A1.
Numbering of substitutions follows the chain as printed. These are yes or no findings as the source states them, for the method shown. Some entries that bind do so weakly or less than the wild type.

By UniProt entry, the sequences of proteins in these tests, tags left out. Where a name states a change or a piece, a line headed by the entry shows the natural chain unless it says otherwise. Residues count along the entry.
UniProt Q9NZQ7: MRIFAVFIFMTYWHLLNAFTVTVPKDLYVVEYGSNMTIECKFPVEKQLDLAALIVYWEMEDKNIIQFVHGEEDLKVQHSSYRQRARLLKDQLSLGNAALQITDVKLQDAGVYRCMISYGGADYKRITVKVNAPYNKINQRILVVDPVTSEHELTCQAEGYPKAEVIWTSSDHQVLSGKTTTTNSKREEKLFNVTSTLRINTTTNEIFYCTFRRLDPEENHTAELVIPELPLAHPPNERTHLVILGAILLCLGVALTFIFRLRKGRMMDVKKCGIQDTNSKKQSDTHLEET
human PD-L1 on cells: residues 19-290 of Q9NZQ7

Tests used:
[1] = target: recombinant cynomolgus monkey PD-L1 (cynomolgus monkey) (UniProt G7PSE7); assay: direct ELISA on coated recombinant PD-L1
[2] = target: recombinant cynomolgus monkey PD-L1 (cynomolgus monkey) (UniProt G7PSE7); assay: direct ELISA on plate-coated recombinant cynomolgus monkey PD-L1; anti-human Fc-HRP, TMB, OD 650 nm
[3] = target: human PD-L1 on cells (human) (UniProt Q9NZQ7); assay: flow cytometry, human PD-L1 transfected HEK 293 cells
[4] = target: human PD-L1-his (Sino Biologics) (human) (UniProt Q9NZQ7); assay: competition ELISA: human PD-L1-his coated at 1 µg/ml, antibody dilutions, then human PD-1-mouse-Fc at 1 µg/ml, anti-mouse IgG-HRP, OD 650 nm
[5] = target: recombinant human PD-L1 (human) (UniProt Q9NZQ7); assay: direct ELISA on coated recombinant PD-L1
[6] = target: human PD-L1 on cells (human) (UniProt Q9NZQ7); assay: flow cytometry on HEK-PD-L1 cells; PE anti-human Fc, MFI
[7] = target: human PD-L1 on cells (human) (UniProt Q9NZQ7); assay: flow cytometry, PD-L1 transfected HEK 293 cells
[8] = target: recombinant human PD-L1 (human) (UniProt Q9NZQ7); assay: competition ELISA: PD-L1 coated, serial dilutions of the antibody, then biotinylated Atezolizumab at 1 µg/ml, streptavidin-HRP, OD 650 nm
[9] = target: human PD-L1 on cells (human) (UniProt Q9NZQ7); assay: flow cytometry, human monocyte-derived myeloid dendritic cells
[10] = target: recombinant human PD-L1 (human) (UniProt Q9NZQ7); assay: direct ELISA on plate-coated recombinant human PD-L1; anti-human Fc-HRP, TMB, OD 650 nm
[11] = target: human PD-L1 on cells (human) (UniProt Q9NZQ7); assay: flow cytometry, myeloid-derived dendritic cells
[12] = target: recombinant human PD-L1 (human) (UniProt Q9NZQ7); assay: competition ELISA on coated PD-L1, competitor biotinylated Atezolizumab
[13] = target: human PD-L1 on cells (human) (UniProt Q9NZQ7); assay: flow cytometry, anti-CD3-activated human CD4+ T cells

Measured: binding

B1: chimeric anti-PD-L1 antibody 43G2 (antibody, human IgG1, V domains shown)
VH: QSVEESGGRLVTPGTPLTLTCTVSGFSLSSYAMGWVRQAPGEGLEYIGFIDTHGSAYYATWAKGRFTISRTSTTVDLKITSPTTEDTATYFCARNVWTNAGYFNLWGPGTLVTVSS
VL: DVVMTQTPSSVSAAVGGTVTIKCQASQNIYTNLAWYQQKPGQPPKLLIYSASTLASGVPSRFKGSGSGTQFTLTISDLECADAATYYCQTYGALIINGGAFGGGTEVVVK
binds: [1] | [2]

B2: chimeric anti-PD-L1 antibody 23D12 (antibody, human IgG1, V domains shown)
VH: QSVEESGGRLVTPGTPLTLTCTVSGFSLSNYVMGWVRQAPGKGLEYIGIISNSDNTYYATWATGRFTISKTSTTVDLKMTSLTTEDTATYFCARVDTYYNDFNLWGPGTLVTVSS
VL: QVLTQTPSSVEAAVGGTVTIKCQASEDIERYLAWYQQKPGQPPKQLIYDASKLASGVSSRFKGSGSGTEFTLTISGVQCDDAATYYCQHGYIYSSGNPFGGGTEVVVK
binds: [1] | [2]

B3: chimeric anti-PD-L1 antibody 11B11 (antibody, human IgG1, V domains shown)
VH: QSVEESGGRLVTPGGTLTLTCTASGFSLSNYTMAWVRQAAGKGLEWIGYINTGGSPYYASWAKGRFTISRSSTTVDLKMTSLTTEDTATYFCARNVDGAWNYLNLWGPGTLVTVSS
VL: AYDMTQTPASVEVVVGGTVTIKCQASETINTYLSWYQQKPGQRPRLLIYAASNLASGVPSRFSGSGSGTEFTLTISGVQCADAATYYCQQGINSNVGNTFGGGTEVVVK
binds: [1]

B4: chimeric anti-PD-L1 antibody 9A9 (antibody, human IgG1, V domains shown)
VH: QSVEESGGRLVTPGTPLTLTCTVSGIDLSGYWMSWVRQAPGKGLEYIGIVDNDGSAYYASWVNGRFTISKTSTTVDLKITSPTTEDTATYFCARQSGDWTFDLWGPGTLVTVSS
VL: DVVMTQTPASVSEPVGGTVTIKCQASQSIGRWLSWYQQKPGQPPKLLIYQASKLASGVPSRFSGSGSGTEFTLTISDLECADAATYYCQNNYDIIAYGNAFGGGTEVVVK
binds: all assays above

B5: chimeric anti-PD-L1 antibody 51D5 (antibody, human IgG1, V domains shown)
VH: QSVEESGGRLVTPGTPLTLTCIVSGFSLSSYWMSWVRRAPGKGLEWIGYINGGSGNPYYASWAKGRFTISKTSTTVDLKITSPTTEDTATYFCARGGESDDYVYGRYGLDPWGPGTLVTVSS
VL: AYDMTQTPASVSEPVGGTVTIKCQASQSISSWLSWYQQKPGQPPKLLIYDASKLASGVPSRFSGSGSGTQFTLTISDLECDDAATYYCQQDYSSYNVDNTFGGGTEVVVK
binds: [1] | [2]

B6: chimeric anti-PD-L1 antibody 39B9 (antibody, human IgG1, V domains shown)
VH: B5 VH with I22T, S30N, R38Q, N56G, P57T, I69S, V103I, L109F
VL: B5 VL with D50Q, P59S, S63K, Q70D, S76I, D77G, L78V, D81A, S93A
binds: [1] | [5]
